Experimental data: patent publication US20240139167A1, “LYSOSOME-ASSOCIATED MEMBRANE PROTEIN TARGETING COMPOUNDS AND USES THEREOF” (HADASIT MEDICAL RESEARCH SERVICES AND DEVELOPMENT LTD., priority 2021, published 2024)

System: APBD patient fibroblast protein homogenates
Test: Target identification by nematic protein organization technique (NPOT)
Set-up: species or system human

COCCN(Cc1sccc1C)C(=O)c1cc(C)nc(O)c1 [Compound 1]
number of interacting proteins belonging to the autophagosomal-autolysosomal pathway: 8 | number of proteins found to interact specifically (10^−6 M): 28
